Results from the supplement of paper PMC7666118.
This is one part of the list.

The chains behind the UniProt entries cited, without tags or fusion partners. Where a name states a change or a piece, a line headed by the entry shows the natural chain unless it says otherwise.
UniProt Q9BSJ8: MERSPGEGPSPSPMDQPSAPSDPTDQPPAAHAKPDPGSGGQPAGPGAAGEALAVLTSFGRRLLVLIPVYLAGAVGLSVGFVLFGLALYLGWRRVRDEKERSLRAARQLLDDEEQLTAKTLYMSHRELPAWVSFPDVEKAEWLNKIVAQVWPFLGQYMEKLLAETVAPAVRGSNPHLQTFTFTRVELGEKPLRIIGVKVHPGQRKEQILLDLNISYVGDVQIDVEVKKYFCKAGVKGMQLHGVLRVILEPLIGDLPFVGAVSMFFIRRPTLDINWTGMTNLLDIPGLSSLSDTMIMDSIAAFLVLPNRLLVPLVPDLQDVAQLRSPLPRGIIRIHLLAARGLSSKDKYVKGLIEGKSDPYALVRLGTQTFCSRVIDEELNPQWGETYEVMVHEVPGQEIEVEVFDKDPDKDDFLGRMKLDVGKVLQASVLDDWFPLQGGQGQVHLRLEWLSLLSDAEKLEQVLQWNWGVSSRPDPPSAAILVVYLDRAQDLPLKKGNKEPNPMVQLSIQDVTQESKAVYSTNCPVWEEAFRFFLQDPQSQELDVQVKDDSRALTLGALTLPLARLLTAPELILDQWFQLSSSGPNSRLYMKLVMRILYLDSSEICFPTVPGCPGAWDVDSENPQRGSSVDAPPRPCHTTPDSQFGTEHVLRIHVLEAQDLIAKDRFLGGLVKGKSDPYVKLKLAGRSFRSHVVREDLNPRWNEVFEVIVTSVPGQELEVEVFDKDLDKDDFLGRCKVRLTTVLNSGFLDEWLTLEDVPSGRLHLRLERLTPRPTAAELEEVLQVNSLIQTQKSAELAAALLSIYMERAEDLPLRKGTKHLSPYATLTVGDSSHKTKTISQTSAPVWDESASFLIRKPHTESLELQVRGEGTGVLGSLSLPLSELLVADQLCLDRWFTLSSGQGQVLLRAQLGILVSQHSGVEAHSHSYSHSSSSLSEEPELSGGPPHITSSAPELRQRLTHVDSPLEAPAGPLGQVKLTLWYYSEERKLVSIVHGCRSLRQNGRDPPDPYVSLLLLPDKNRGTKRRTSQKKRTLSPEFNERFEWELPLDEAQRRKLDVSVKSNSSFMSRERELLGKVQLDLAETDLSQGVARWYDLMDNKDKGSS
UniProt Q9H9S5: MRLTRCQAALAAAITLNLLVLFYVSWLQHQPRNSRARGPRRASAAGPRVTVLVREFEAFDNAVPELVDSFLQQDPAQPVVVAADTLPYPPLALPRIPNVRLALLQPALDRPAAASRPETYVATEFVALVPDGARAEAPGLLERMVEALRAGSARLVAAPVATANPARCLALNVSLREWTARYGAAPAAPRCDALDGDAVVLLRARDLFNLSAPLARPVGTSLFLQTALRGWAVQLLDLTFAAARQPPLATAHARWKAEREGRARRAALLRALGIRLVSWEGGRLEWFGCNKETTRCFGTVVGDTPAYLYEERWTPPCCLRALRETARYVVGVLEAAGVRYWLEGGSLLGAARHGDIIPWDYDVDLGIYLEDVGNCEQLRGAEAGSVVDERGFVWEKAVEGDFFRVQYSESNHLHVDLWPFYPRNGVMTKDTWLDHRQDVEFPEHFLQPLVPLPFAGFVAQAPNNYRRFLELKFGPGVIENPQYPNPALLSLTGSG
UniProt P30679: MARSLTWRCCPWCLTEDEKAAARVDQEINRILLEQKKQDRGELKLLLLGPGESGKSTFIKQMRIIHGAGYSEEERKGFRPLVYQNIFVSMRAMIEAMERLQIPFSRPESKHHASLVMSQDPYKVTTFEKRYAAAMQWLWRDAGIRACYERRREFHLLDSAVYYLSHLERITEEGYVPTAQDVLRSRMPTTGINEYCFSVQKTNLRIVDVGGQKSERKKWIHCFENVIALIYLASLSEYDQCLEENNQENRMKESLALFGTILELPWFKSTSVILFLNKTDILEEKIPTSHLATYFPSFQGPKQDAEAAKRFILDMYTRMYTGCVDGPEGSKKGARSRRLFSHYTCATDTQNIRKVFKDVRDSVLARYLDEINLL
UniProt Q10472: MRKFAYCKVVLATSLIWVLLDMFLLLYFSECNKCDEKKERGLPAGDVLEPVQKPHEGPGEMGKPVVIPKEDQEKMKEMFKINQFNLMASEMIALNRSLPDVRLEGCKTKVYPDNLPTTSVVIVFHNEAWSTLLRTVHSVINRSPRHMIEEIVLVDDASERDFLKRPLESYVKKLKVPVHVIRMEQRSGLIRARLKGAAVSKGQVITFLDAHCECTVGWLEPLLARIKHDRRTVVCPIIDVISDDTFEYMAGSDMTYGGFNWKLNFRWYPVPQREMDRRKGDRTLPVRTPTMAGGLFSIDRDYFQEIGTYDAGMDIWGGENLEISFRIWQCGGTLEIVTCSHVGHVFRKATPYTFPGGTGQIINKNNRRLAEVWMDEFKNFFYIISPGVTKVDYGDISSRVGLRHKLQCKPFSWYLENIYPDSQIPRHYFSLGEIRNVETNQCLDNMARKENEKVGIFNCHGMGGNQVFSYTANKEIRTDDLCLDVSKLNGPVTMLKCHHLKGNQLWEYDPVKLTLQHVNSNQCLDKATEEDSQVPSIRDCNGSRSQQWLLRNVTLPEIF
UniProt Q53EP0: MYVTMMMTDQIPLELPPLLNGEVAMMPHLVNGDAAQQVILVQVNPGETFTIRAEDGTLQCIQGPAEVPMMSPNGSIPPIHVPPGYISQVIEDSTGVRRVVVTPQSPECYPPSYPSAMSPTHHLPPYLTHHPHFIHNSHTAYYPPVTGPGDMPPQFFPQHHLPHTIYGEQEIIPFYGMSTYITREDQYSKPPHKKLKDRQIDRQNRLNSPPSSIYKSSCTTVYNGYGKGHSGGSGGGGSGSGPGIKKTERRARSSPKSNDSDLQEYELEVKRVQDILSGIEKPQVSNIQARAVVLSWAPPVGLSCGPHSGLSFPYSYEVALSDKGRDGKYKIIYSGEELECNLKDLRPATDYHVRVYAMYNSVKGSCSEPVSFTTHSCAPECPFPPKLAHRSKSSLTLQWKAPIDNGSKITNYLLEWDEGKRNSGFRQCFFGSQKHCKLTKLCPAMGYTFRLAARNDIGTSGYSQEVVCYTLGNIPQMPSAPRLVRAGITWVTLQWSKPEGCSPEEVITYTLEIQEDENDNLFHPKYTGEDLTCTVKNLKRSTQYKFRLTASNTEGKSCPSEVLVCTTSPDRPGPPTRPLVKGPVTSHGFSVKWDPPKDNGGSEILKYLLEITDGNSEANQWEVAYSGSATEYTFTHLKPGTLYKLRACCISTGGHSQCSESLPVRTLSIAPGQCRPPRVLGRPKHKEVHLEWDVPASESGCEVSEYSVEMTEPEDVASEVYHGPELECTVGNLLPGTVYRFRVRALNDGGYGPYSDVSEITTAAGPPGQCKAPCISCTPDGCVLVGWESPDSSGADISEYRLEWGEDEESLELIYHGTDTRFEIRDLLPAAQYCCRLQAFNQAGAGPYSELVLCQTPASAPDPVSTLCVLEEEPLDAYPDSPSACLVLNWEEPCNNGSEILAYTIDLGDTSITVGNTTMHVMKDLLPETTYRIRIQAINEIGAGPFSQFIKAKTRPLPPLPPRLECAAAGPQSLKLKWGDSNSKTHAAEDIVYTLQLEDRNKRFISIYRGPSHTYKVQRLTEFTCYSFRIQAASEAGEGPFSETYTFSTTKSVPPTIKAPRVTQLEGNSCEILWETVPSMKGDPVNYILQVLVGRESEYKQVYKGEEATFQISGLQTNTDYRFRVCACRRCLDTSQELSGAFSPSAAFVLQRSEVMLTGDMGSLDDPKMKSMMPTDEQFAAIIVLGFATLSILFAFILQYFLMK
UniProt P14324: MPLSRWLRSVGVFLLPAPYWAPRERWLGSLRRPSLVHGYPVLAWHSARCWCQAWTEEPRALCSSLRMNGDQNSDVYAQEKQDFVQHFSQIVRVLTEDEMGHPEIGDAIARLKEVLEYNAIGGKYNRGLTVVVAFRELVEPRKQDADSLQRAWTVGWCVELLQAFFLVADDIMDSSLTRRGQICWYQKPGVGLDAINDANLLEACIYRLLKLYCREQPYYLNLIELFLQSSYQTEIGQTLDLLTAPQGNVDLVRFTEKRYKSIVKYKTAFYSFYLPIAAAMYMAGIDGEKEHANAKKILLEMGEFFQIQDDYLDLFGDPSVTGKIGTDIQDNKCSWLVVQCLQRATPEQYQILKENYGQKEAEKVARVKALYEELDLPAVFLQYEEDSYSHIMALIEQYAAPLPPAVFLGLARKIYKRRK

Compound: COc1ccc(Cn2ccc3cc(C)c(C(=O)NO)cc32)cc1
Experiment: dose-dependent thermal stabilisation call (2D-TPP, DLPTP, 10% FDR) (binary (1 = stabilised)); higher = stabilised by the compound
Settings: system: HL-60 intact cells; concentration range 0.04-10 µM
Description: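 2D thermal proteome profiling in intact HL-60 cells treated with BRD-3811 (0, 0.04, 0.29, 2, 10 uM) for 90 min at 37 C, then heated 3 min at one of 12 temperatures (42-63.9 C). Soluble protein was quantified by TMT10 MS. The value is the DLPTP call of the paper: dose-dependent thermal stabilisation over all temperatures at 10% FDR (F-test of a dose-response against a flat model); one experiment, one call per tested protein.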

With FAM62A (UniProt Q9BSJ8) as the target, how does the “dose-dependent thermal stabilisation call” value read?
Its value is inactive: 0.

With FKRP (UniProt Q9H9S5) as the target, how does the “dose-dependent thermal stabilisation call” value read?
Its value is inactive: 0.

GNA15 (UniProt P30679) was tested. Which “dose-dependent thermal stabilisation call” value did it give?
Its value is inactive: 0.

With GNB2L1 (UniProt P63244) as the target, how does the “dose-dependent thermal stabilisation call” value read?
Its value is inactive: 0.

For FBN2 (UniProt P35556), which “dose-dependent thermal stabilisation call” value is on record?
The value was inactive: 0.

GALNT1 (UniProt Q10472) was tested. Which “dose-dependent thermal stabilisation call” value did it give?
The value was inactive: 0.

Which “dose-dependent thermal stabilisation call” value does the source give for FNDC3B (UniProt Q53EP0) here?
The value was inactive: 0.

FDPS (UniProt P14324) was tested. Which “dose-dependent thermal stabilisation call” value did it give?
Its value is inactive: 0.
